Laboratory results as given in the supplement of paper PMC4604168 (melanoma cell lines).
This is one part of the list. Repeats are few or missing, and single values can be far off.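 Cells were imaged in 1,536-well plates, and nuclei stained with an antibody against cleaved PARP were counted against all DNA-stained nuclei to give the apoptosis fraction. Screening doses were chosen to leave most cells alive, and resting and induced cleaved-PARP levels differ strongly between cell lines.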

Tests used:
Test in all cases: cleaved PARP positive nuclei fraction relative to DMSO control; melanoma cells; higher = more apoptosis
Conditions in all cases: library dose: low library concentration; 72 h
501Mel = system: 501Mel
A101D = system: A101D
A2058 = system: A2058
A375 = system: A375
C32 = system: C32
CBRC013 = system: CBRC013 (line from a melanoma biopsy)
CBRC014 = system: CBRC014 (line from a melanoma biopsy)
CBRC016 = system: CBRC016 (line from a melanoma biopsy)
CBRC017 = system: CBRC017 (line from a melanoma biopsy)

SMILES	cleaved PARP positive nuclei fraction (501Mel)	cleaved PARP positive nuclei fraction (A101D)	cleaved PARP positive nuclei fraction (A2058)	cleaved PARP positive nuclei fraction (A375)	cleaved PARP positive nuclei fraction (C32)	cleaved PARP positive nuclei fraction (CBRC013)	cleaved PARP positive nuclei fraction (CBRC014)	cleaved PARP positive nuclei fraction (CBRC016)	cleaved PARP positive nuclei fraction (CBRC017)
O=S(=O)(c1ccccc1)N(CC(F)(F)F)c1ccc(C(O)(C(F)(F)F)C(F)(F)F)cc1 + Cc1cc(SCc2sc(-c3ccc(C(F)(F)F)c(F)c3)nc2C)ccc1OCC(=O)O [GW0742] (first compound 1.4 µM, partner dose 2 µM)	137%	115%	69.2%	154%	134%	35.8%	96.8%	60.5%	76.3%
Cc1cc(SCc2sc(-c3ccc(C(F)(F)F)c(F)c3)nc2C)ccc1OCC(=O)O + O=C(Oc1ccc([N+](=O)[O-])cc1)N1CCC(C(O)(c2ccc3c(c2)OCO3)c2ccc3c(c2)OCO3)CC1 [JZL184] (first compound 2 µM, partner dose 1 µM)	96.8%	57.1%	107%	55%	141%	84.3%	95.4%	191%	97.2%
COc1ccc(-c2ccc3c(N4CCOCC4)nc(N4C[C@@H](C)O[C@@H](C)C4)nc3n2)cc1CO + O=C(Oc1ccc([N+](=O)[O-])cc1)N1CCC(C(O)(c2ccc3c(c2)OCO3)c2ccc3c(c2)OCO3)CC1 [JZL184] (first compound 0.02 µM, partner dose 1 µM)	62.6%	51.4%	125%	169%	149%	1510%	95.4%	143%	82.6%
COc1ccc(-c2ccc3c(N4CCOCC4)nc(N4C[C@@H](C)O[C@@H](C)C4)nc3n2)cc1CO + C/C(O)=C(\C#N)C(=O)Nc1cc(Br)ccc1Br [LFM-A13] (first compound 0.02 µM, partner dose 2 µM)	53.3%	185%	273%	217%	296%	78.8%	101%	48.8%	228%
O=C1NC(=O)/C(=C/c2ccc(-c3ccc(F)cc3O)o2)S1 + O=C(Oc1ccc([N+](=O)[O-])cc1)N1CCC(C(O)(c2ccc3c(c2)OCO3)c2ccc3c(c2)OCO3)CC1 [JZL184] (first compound 1 µM, partner dose 1 µM)	78.7%	155%	88.6%	67.3%	120%	150%	91.3%	154%	132%
C[As](C)SC[C@H](NC(=O)CC[C@H](N)C(=O)O)C(=O)NCC(=O)O [Darinaparsin] + O=C(Oc1ccc([N+](=O)[O-])cc1)N1CCC(C(O)(c2ccc3c(c2)OCO3)c2ccc3c(c2)OCO3)CC1 [JZL184] (first compound 0.4 µM, partner dose 1 µM)	47.8%	30.6%	46.7%	51.9%	168%	172%	98.9%	27.3%	84.5%
CC(C)(C)c1cnc(CSc2cnc(NC(=O)C3CCNCC3)s2)o1 + Cc1cc(SCc2sc(-c3ccc(C(F)(F)F)c(F)c3)nc2C)ccc1OCC(=O)O [GW0742] (first compound 0.01 µM, partner dose 2 µM)	162%	82.6%	134%	203%	71.3%	65.3%	106%	97.1%	107%
CN(C)S(=O)(=O)c1ccc2c(c1)/C(=C/c1cc3c([nH]1)CCCC3)C(=O)N2 + O=C(Oc1ccc([N+](=O)[O-])cc1)N1CCC(C(O)(c2ccc3c(c2)OCO3)c2ccc3c(c2)OCO3)CC1 [JZL184] (first compound 0.4 µM, partner dose 1 µM)	87.6%	144%	38.6%	121%	68.6%	244%	98.7%	19.3%	283%
Cc1cc(N2CCOCC2)cc2[nH]c(-c3c(NC[C@@H](O)c4cccc(Cl)c4)cc[nH]c3=O)nc12 + O=C(Oc1ccc([N+](=O)[O-])cc1)N1CCC(C(O)(c2ccc3c(c2)OCO3)c2ccc3c(c2)OCO3)CC1 [JZL184] (first compound 0.2 µM, partner dose 1 µM)	93.2%	110%	139%	202%	66.9%	44.7%	105%	9430%	81.3%
COc1cc2c(Oc3ccc4[nH]c(C)cc4c3F)ncnc2cc1OCCCN1CCCC1 [cediranib] + C/C(O)=C(\C#N)C(=O)Nc1cc(Br)ccc1Br [LFM-A13] (first compound 0.4 µM, partner dose 2 µM)	92.1%	134%	32.6%	119%	70.6%	114%	155%	49.6%	127%
COc1ccc2c(c1)CCC1C2CCC2(C)C(NCCCCCCN3C(=O)C=CC3=O)CCC12 (stereo unspecified) + O=C(Oc1ccc([N+](=O)[O-])cc1)N1CCC(C(O)(c2ccc3c(c2)OCO3)c2ccc3c(c2)OCO3)CC1 [JZL184] (first compound 0.4 µM, partner dose 1 µM)	122%	89.5%	37.9%	190%	72%	96.9%	112%	156%	191%
Cc1ccc(NC(=O)c2cccc(N(C)C)c2)cc1NC(=O)c1ccc(O)cc1 + Cc1cc(SCc2sc(-c3ccc(C(F)(F)F)c(F)c3)nc2C)ccc1OCC(=O)O [GW0742] (first compound 2 µM, partner dose 2 µM)	203%	97.3%	77%	125%	113%	67.3%	114%	105%	115%
c1cc(-c2cnn3cc(-c4ccc(OCCN5CCCCC5)cc4)cnc23)ccn1 [Dorsomorphin] + O=C(Oc1ccc([N+](=O)[O-])cc1)N1CCC(C(O)(c2ccc3c(c2)OCO3)c2ccc3c(c2)OCO3)CC1 [JZL184] (first compound 0.4 µM, partner dose 1 µM)	38.6%	83.9%	95.7%	24.8%	68.9%	358%	84.4%	62.4%	57.6%
C/C(O)=C(\C#N)C(=O)Nc1cc(Br)ccc1Br + CCCCCCCCCCCC1=C(O)C(=O)C=C(O)C1=O [Embelin] (first compound 2 µM, partner dose 1.2 µM)	61.4%	54%	61.3%	134%	143%	129%	124%	33.7%	68.5%
C[C@]1(c2nc3c(C(N)=O)cccc3[nH]2)CCCN1 [Veliparib] + O=C(Oc1ccc([N+](=O)[O-])cc1)N1CCC(C(O)(c2ccc3c(c2)OCO3)c2ccc3c(c2)OCO3)CC1 [JZL184] (first compound 1.4 µM, partner dose 1 µM)	76.2%	233%	186%	60.3%	123%	390%	97.6%	90.4%	96.7%
C=CCn1c(=O)c2cnc(Nc3ccc(N4CCN(C)CC4)cc3)nc2n1-c1cccc(C(C)(C)O)n1 + Cc1cc(SCc2sc(-c3ccc(C(F)(F)F)c(F)c3)nc2C)ccc1OCC(=O)O [GW0742] (first compound 0.02 µM, partner dose 2 µM)	69.2%	132%	28.5%	348%	133%	289%	105%	19.1%	138%
CCc1ccc(CCOc2ccc(CC3SC(=O)NC3=O)cc2)nc1 (stereo unspecified) [pioglitazone] + O=C(Oc1ccc([N+](=O)[O-])cc1)N1CCC(C(O)(c2ccc3c(c2)OCO3)c2ccc3c(c2)OCO3)CC1 [JZL184] (first compound 2 µM, partner dose 1 µM)	73.2%	191%	106%	35.9%	68.3%	42.7%	109%	72.7%	106%
O=C(Nc1cccc(Cl)c1)Nc1ncc(CCNc2ncnc3ccsc23)s1 + C/C(O)=C(\C#N)C(=O)Nc1cc(Br)ccc1Br [LFM-A13] (first compound 0.0008 µM, partner dose 2 µM)	49%	44.4%	128%	104%	43%	205%	114%	132%	107%
C[As](C)SC[C@H](NC(=O)CC[C@H](N)C(=O)O)C(=O)NCC(=O)O [Darinaparsin] + CCc1ccc(CCOc2ccc(CC3SC(=O)NC3=O)cc2)nc1 [pioglitazone] (first compound 0.4 µM, partner dose 2 µM)	81.7%	55.3%	37.3%	52.6%	190%	177%	111%	64.2%	145%
N#Cc1c(O)c2c(-c3ccc(-c4ccccc4O)cc3)csc2[nH]c1=O + C/C(O)=C(\C#N)C(=O)Nc1cc(Br)ccc1Br [LFM-A13] (first compound 2 µM, partner dose 2 µM)	120%	79.4%	97.1%	118%	130%	64.6%	110%	46.7%	79.3%
O=C(O)c1ccc(-c2c[nH]c3ncc(-c4ccccc4)cc23)cc1C1CCCC1 + O=C(Oc1ccc([N+](=O)[O-])cc1)N1CCC(C(O)(c2ccc3c(c2)OCO3)c2ccc3c(c2)OCO3)CC1 [JZL184] (first compound 0.16 µM, partner dose 1 µM)	149%	106%	152%	91.8%	75.1%	80.8%	86.4%	160%	114%
CC1(C)NC(=O)N(c2ccc([N+](=O)[O-])c(C(F)(F)F)c2)C1=O [nilutamide] + C/C(O)=C(\C#N)C(=O)Nc1cc(Br)ccc1Br [LFM-A13] (first compound 1 µM, partner dose 2 µM)	414%	147%	68.2%	60.1%	74.5%	265%	76%	107%	92.3%
Cn1c(Nc2ccc(C(F)(F)F)cc2)nc2cc(Oc3ccnc(-c4ncc(C(F)(F)F)[nH]4)c3)ccc21 + Cc1cc(SCc2sc(-c3ccc(C(F)(F)F)c(F)c3)nc2C)ccc1OCC(=O)O [GW0742] (first compound 0.08 µM, partner dose 2 µM)	277%	483%	400%	204%	131%	644%	93.7%	106%	104%
N#Cc1c(O)c2c(-c3ccc(-c4ccccc4O)cc3)csc2[nH]c1=O + O=C(Oc1ccc([N+](=O)[O-])cc1)N1CCC(C(O)(c2ccc3c(c2)OCO3)c2ccc3c(c2)OCO3)CC1 [JZL184] (first compound 2 µM, partner dose 1 µM)	81.6%	53.5%	81.7%	85.4%	84.6%	65.7%	190%	40.9%	77.9%

A second format for some results above.
SMILES,cleaved PARP positive nuclei fraction (501Mel),cleaved PARP positive nuclei fraction (A101D),cleaved PARP positive nuclei fraction (A2058),cleaved PARP positive nuclei fraction (A375),cleaved PARP positive nuclei fraction (C32),cleaved PARP positive nuclei fraction (CBRC013),cleaved PARP positive nuclei fraction (CBRC014),cleaved PARP positive nuclei fraction (CBRC016),cleaved PARP positive nuclei fraction (CBRC017)
"O=S(=O)(c1ccccc1)N(CC(F)(F)F)c1ccc(C(O)(C(F)(F)F)C(F)(F)F)cc1 + Cc1cc(SCc2sc(-c3ccc(C(F)(F)F)c(F)c3)nc2C)ccc1OCC(=O)O [GW0742] (first compound 1.4 µM, partner dose 2 µM)",137%,115%,69.2%,154%,134%,35.8%,96.8%,60.5%,76.3%
"CCc1ccc(CCOc2ccc(CC3SC(=O)NC3=O)cc2)nc1 (stereo unspecified) [pioglitazone] + O=C(Oc1ccc([N+](=O)[O-])cc1)N1CCC(C(O)(c2ccc3c(c2)OCO3)c2ccc3c(c2)OCO3)CC1 [JZL184] (first compound 2 µM, partner dose 1 µM)",73.2%,191%,106%,35.9%,68.3%,42.7%,109%,72.7%,106%
